Results published in publication PMC3094755.
For part of these data: Negatives hold for the conditions tested. For part of these data: Weaker means in comparison with the reference protein, sequence or condition of that experiment. For part of these data: Construct, isoform or probe ends are uncertain for at least one entry. For part of these data: At least one verdict rests on a figure or table, not on a statement of the authors.

The chains behind the UniProt entries cited, without tags or fusion partners. Residues count along the entry.
UniProt P09874, 1-214: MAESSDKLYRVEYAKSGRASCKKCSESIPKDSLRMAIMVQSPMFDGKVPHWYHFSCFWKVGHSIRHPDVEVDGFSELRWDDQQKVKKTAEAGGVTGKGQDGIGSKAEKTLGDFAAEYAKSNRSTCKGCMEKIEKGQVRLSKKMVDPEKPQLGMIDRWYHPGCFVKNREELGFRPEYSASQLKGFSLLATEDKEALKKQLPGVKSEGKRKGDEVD
UniProt P09874, 103-214: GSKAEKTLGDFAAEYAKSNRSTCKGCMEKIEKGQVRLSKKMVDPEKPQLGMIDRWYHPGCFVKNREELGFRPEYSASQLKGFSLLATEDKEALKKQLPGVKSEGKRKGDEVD
UniProt P09874, 103-214 G135D: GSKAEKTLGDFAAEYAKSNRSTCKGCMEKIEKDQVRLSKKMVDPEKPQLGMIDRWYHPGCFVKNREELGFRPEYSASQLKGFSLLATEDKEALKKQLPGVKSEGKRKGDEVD
UniProt P09874, 103-214 K134I: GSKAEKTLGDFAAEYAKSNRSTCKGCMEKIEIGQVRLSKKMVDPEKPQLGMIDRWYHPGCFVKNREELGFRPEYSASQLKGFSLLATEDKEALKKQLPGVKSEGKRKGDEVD

Key:
[1] = biological target: PARP-1 F1+F2 (24-kDa DBD) (Homo sapiens) (UniProt P09874); assay: fluorescence anisotropy; details: 0-200 mM NaCl, FA: 50 mM Tris-HCl pH 7, 150 uM ZnSO4, 4 mM DTT, 25 C, 10 nM DNA (mutants 25 nM DNA, 25 mM NaCl), recombinant protein
[2] = biological target: PARP-1 F2 (Homo sapiens) (UniProt P09874); assay: fluorescence anisotropy; details: weak site (KD2), 5'-phosphate, FA: 50 mM Tris-HCl pH 7, 150 uM ZnSO4, 4 mM DTT, 0-200 mM NaCl, 25 C, 10 nM DNA (mutants 25 nM DNA, 25 mM NaCl), recombinant protein, residues 103-214, label: fluorescein-dT at T8, folded or branched DNA
[3] = biological target: PARP-1 F1+F2 (24-kDa DBD) (Homo sapiens) (UniProt P09874); assay: SV-AUC; details: 0.5 uM DNA, 5x protein, no 1:1 complex, residual interaction; circular, nick sealed by T4 DNA ligase; recombinant protein; residues 1-214; label: fluorescein-dT at T8; folded or branched DNA; letters put together from the description
[4] = biological target: PARP-1 F2 G135D (Homo sapiens) (UniProt P09874); assay: EMSA; details: 400 nM DNA; 5'-phosphate; EMSA: 50 mM Tris-HCl pH 7.4, 150 uM ZnSO4, 4 mM DTT, 10% glycerol, RT incubation, gel at 4 C; recombinant protein; residues 103-214; folded or branched DNA
[5] = biological target: PARP-1 F2 K119 mutant (Homo sapiens) (UniProt P09874); assay: EMSA; details: 400 nM DNA; 5'-phosphate; EMSA: 50 mM Tris-HCl pH 7.4, 150 uM ZnSO4, 4 mM DTT, 10% glycerol, RT incubation, gel at 4 C; recombinant protein; residues 103-214; folded or branched DNA
[6] = biological target: PARP-1 F2 K131 single mutant (Homo sapiens) (UniProt P09874); assay: EMSA; details: 400 nM DNA; 5'-phosphate; EMSA: 50 mM Tris-HCl pH 7.4, 150 uM ZnSO4, 4 mM DTT, 10% glycerol, RT incubation, gel at 4 C; recombinant protein; residues 103-214; folded or branched DNA
[7] = biological target: PARP-1 F2 K134I (Homo sapiens) (UniProt P09874); assay: EMSA; details: 400 nM DNA; 5'-phosphate; EMSA: 50 mM Tris-HCl pH 7.4, 150 uM ZnSO4, 4 mM DTT, 10% glycerol, RT incubation, gel at 4 C; recombinant protein; residues 103-214; folded or branched DNA
[8] = biological target: PARP-1 F2 K141 single mutant (Homo sapiens) (UniProt P09874); assay: EMSA; details: 400 nM DNA; 5'-phosphate; EMSA: 50 mM Tris-HCl pH 7.4, 150 uM ZnSO4, 4 mM DTT, 10% glycerol, RT incubation, gel at 4 C; recombinant protein; residues 103-214; folded or branched DNA
[9] = biological target: PARP-1 F2 K142 single mutant (Homo sapiens) (UniProt P09874); assay: EMSA; details: 400 nM DNA; 5'-phosphate; EMSA: 50 mM Tris-HCl pH 7.4, 150 uM ZnSO4, 4 mM DTT, 10% glycerol, RT incubation, gel at 4 C; recombinant protein; residues 103-214; folded or branched DNA
[10] = biological target: PARP-1 F2 K197 mutant (Homo sapiens) (UniProt P09874); assay: EMSA; details: 400 nM DNA, identical to wild type; 5'-phosphate; EMSA: 50 mM Tris-HCl pH 7.4, 150 uM ZnSO4, 4 mM DTT, 10% glycerol, RT incubation, gel at 4 C; recombinant protein; residues 103-214; folded or branched DNA
[11] = biological target: PARP-1 F2 R122 mutant (Homo sapiens) (UniProt P09874); assay: EMSA; details: 400 nM DNA; 5'-phosphate; EMSA: 50 mM Tris-HCl pH 7.4, 150 uM ZnSO4, 4 mM DTT, 10% glycerol, RT incubation, gel at 4 C; recombinant protein; residues 103-214; folded or branched DNA
[12] = biological target: PARP-1 F2 S120 mutant (Homo sapiens) (UniProt P09874); assay: EMSA; details: 400 nM DNA; 5'-phosphate; EMSA: 50 mM Tris-HCl pH 7.4, 150 uM ZnSO4, 4 mM DTT, 10% glycerol, RT incubation, gel at 4 C; recombinant protein; residues 103-214; folded or branched DNA
[13] = biological target: PARP-1 F2 W157 mutant (Homo sapiens) (UniProt P09874); assay: EMSA; details: 400 nM DNA; 5'-phosphate; EMSA: 50 mM Tris-HCl pH 7.4, 150 uM ZnSO4, 4 mM DTT, 10% glycerol, RT incubation, gel at 4 C; recombinant protein; residues 103-214; folded or branched DNA

CGGTCGATCGTAAGATCGACCGCGGTCGATCGTAAGATCGACCG
binding result ([1]; values in Supp. Table 1, not in material, 5'-phosphate, residues 1-214, label: fluorescein-dT at T8 and T30, folded or branched DNA): binds
binding result ([1]; 150 mM NaCl, circular, nick sealed by T4 DNA ligase, residues 1-214, label: fluorescein-dT at T8 and T30, folded or branched DNA, letters put together from the description): no binding
binding result ([1]; 200 mM NaCl, circular, nick sealed by T4 DNA ligase, residues 1-214, label: fluorescein-dT at T8 and T30, folded or branched DNA, letters put together from the description): no binding

CGGTCGATCGTAAGATCGACCGGCGCTGGAGCTTGCTCCAGCGC [44-nt nicked dumbbell, 5'-phosphate, fluorescein-dT]
Kd ([1]; 100 mM NaCl, nonspecific secondary site (KD2), 5'-phosphate, residues 1-214, label: fluorescein-dT at T8, folded or branched DNA): 2600 nM
Kd ([2]; 50 mM NaCl): 1700 nM
Kd ([2]; 100 mM NaCl): 10600 nM

CGGTCGATCGTAAGATCGACCGGCGCTGGAGCTTGCTCCAGCGC [ligated (circular) 44-nt dumbbell, fluorescein-dT]
binding result [3]: binds more weakly
binding result ([1]; tight site eliminated, circular, nick sealed by T4 DNA ligase, residues 1-214, label: fluorescein-dT at T8, folded or branched DNA, letters put together from the description): binds more weakly

CGGTCGATCGTAAGATCGACCGTGCGCTGGAGCTTGCTCCAGCGC [45-nt gapped dumbbell, 5'-phosphate]
binding result [4]: binds more weakly
binding result [5]: no binding
binding result [6]: binds more weakly
binding result [7]: binds more weakly
binding result [8]: binds more weakly
binding result [9]: binds more weakly
binding result [10]: binds
binding result [11]: no binding
binding result [12]: no binding
binding result [13]: no binding
